The results in this text go back to patent publication US20240389581A1, “SYNERGISTIC PESTICIDAL COMPOSITIONS AND METHODS FOR DELIVERY OF INSECTICIDAL ACTIVE INGREDIENTS” (TERRAMERA, INC., priority 2021, published 2024).

This experiment concerns Trichoplusia ni (cabbage looper) larvae. Description: In-vitro insecticidal efficacy (mortality and bioactivity, treated artificial diet, Abbott and Colby formulas) against Trichoplusia ni. Type of experiment: in vivo. The conditions noted are these: Table 69B, Coragen 0.2525 ppm (0.04646 ppm chlorantraniliprole), aliphatic acid (salt) 500 ppm, alone or combined. How it is done: An artificial diet suitable for Trichoplusia ni (cabbage looper caterpillar) was prepared from a commercially available general purpose lepidoptera artificial diet premix (such as General Purpose Lepidoptera Diet available from Frontier Scientific Services, Newark, DE) and mixed in a heated liquid agar media (0.022 g agar per ml of water). The liquid artificial diet and agar media was then used to fill each well of a transparent 96-well treatment plate with 200 μL of the artificial diet and agar media, which was allowed to solidify at room temperature and stored at approximately 4 C.
A 20 μL treatment sample of each treatment formulation was then placed on top of the solidified artificial diet media in a well of a 96 well plate and allowed to dry overnight.
The following day, one neonate Trichoplusia ni (cabbage looper) larva (hatched from eggs obtained from the Benzon Research, Inc. of Carlisle, PA, USA) was added to each well of the plate, after which the wells were sealed with a perforated transparent film, allowing air and moisture exchange. The plates were kept in a suitable regulated indoor incubation environment and the larvae were allowed to feed on the treatment overlaid diet/agar media for 5 days. […] Each experiment contained 8 replicates (larvae cells) for each treatment.
While for SF<1, antagonism is present and for SF=1, the efficacy of the compounds is merely additive. […]

On to `CC(C)CC(=O)O` [3-methylbutyric acid], for which the “Survival Rate (100-(mortality + stunting))” value is 91.67%.
